The chains are these.
B1: VPS51 (protein, UniProt F1M4I4 1-782)
chain: MAAAAAVGPGLGSGPGDSPEGSEADAPERRRKAHGMLKLYYGLSEGEATGHSAGSDPLDPTDLNGAHFDPEVYLDKLRRECPLAQLMDSETDMVRQIRALDSDMQTLVYENYNKFISATDTIRKMKNDFRKMEDEMDRLATNMAVITNFSARISATLQDRHERITKLAGVHALLRKLQFLFELPSRLTKCVELGAYGQAVRYQGRARAVLQQYQHLPSFRAIQDDCQVITARLAQQLRQRFREGCSGAPEQAECVELLLALGEPAEELCEEFLAHARGRLEEELSSLETELGPSPPAPDVLEFTDRGGNGFVGGLCQVAAAYQELFAAQGPAGAEKLAAFAQELGGRYFALVERRLAQEQGGSDNSLLVRALDRFHRRLRAPGALLAAAGLSESATEIVERVARERLSHHLQGLKAAFLSCLTDVRQALAAPRLAGKEGPSLAELLANVASSILSHIKASLASVHLFTAKEVSFSNKPYFRGEFCSQGVREGLIVGFIRSMCQTAQGFCDSPGEKGGATPPALLLLLSRLCLDYETATISYILTLTDEQFLVQDQSPVTPVSTLCAEARETARRLLTHYVKVQGLVISQMLRKSVETRDWLSTLEPRNVRAVMKRVVEDTTAIDVQVGLLYEEGVRKAQSSDSSKRTFSVYSSSRQQGRYAPSYTPSAPMDTNLLSNIQKLFSERIDVFSPVEFNKVSVLTGIIKISLKTLLECVRLRTFGRFGLQQVQVDCHFLQLYLWRFVADEELVHLLLDEVVASAALRCPDPVPMEPSVVEVICERG
B2: VPS54 (protein, UniProt Q9JMK8 1-965)
chain: MASSHSSSPVPQGSSSDVFFKKEVDPTKHVRPVQSLPDVCPKEPTVTDQHRWTVYHSKVNLPAALNDPTLAKRESDFFTKTWGLGFVDTEVIPSLYLPQISKEHFIAYQQEISQREKIHERCKNICPPKDTFDRTLLHIHDKSRTDLEQVPKIFMKPDFALDDSLTFNSVLPWSHFNTAGGKGNRDAASSKLLQEKLSHYLDIVEVNIAHQISLRSEAFFHAMTSQHELQDYLKKTSQAVKMLRDKIAQIDKVMCEGSLQILRLALTRNNCVKVSNKLKLMATVHQTQPTVQVLLSTSEFVGALDLIATTQEVLQQELQGVHSFRHLGSQLCELEKLIDKMMIAEFSTYSHSDLNRPLEGECQVLEEERLVSLVFGLLEQRKLNFLEIYGEETIITAKNIIKECVINKVAQVEEIDTDAVVKLADQMRMLNFPQWIDLLKDIFSKFTIFLQRVKATLNVIHSVVLSVLDKNQRTRELEEVSQQRSAGKDNSLDTEVAYLTHEGLFISDAFSEAEPASAAVDTTSQRNTSPHSEPCSSDSVSEPECTTDSSSSKEQTPASATLGGVDIIVSEDMRLTDLELGKLASNIQELLCNASDVCHDRAVKFLMSRAKDGFLEKLNSTEFIALSRLMETYIVDTEQICGRKSTSLLGALQSQANKFVNRFHEERRTKLSLLLDNERWKQADVPAEFQDLVDSIADGKIALPDKKPAATEDRKPADVLVVEGHQYAVVGTVLLLIRIILEYCQCVDNIPSVTTDMLTRLTDLLKYFNSRSCQLVLGAGALQVVGLKTITTKNLALSSRCLQLIVHYIPVIRAHFEARLPRKQWSLLRHFDHITKDYHDHIGEISSKLIAIMDSLFDKLLSRCEVEAPAPSPCFRNICKQMTKMHEAIFDLLPKEQTQMLILRINASYKFHLKKQLSHLNVINDGGPQSGFVTADVAFYTGNLQALKGLKDLDLNMAEIWEQKR
B3: SNAP29 (protein, UniProt Q9Z2P6 1-257)
chain: MSGYPKSYNPFDDDVEDEDTRPAPWKDARDLPDGPDPPIDRQQYLRQEVLRGPSATAASTSRSLFLMYESEKIGVASSEELVRQRGVLEHTEKMVDKMDQDLKMSQKHINSIKSVFGGFINYFKSKPVEPPPEQNGSIVPQPSSRLKEAINTSKDQESKYQASHPNLRRLHDAELDSVPASTVNTEVYPKNSSLRAYHQKIDSNLDELSVGLGRLKDIALGMQTEIEEQDDILDRLTTKVDKLDVNIKSTEKKVRQL

No constants are given. Whether binding was seen depends on the method and setting. In cells and extracts the contact can be indirect. These calls come from enrichment with a bait or labelling near it, and not all partners need be listed. Tags and fused reporters may be left off the sequences shown.

This assay addresses T1, EGFP-tagged rat EIPR1 (rat) (UniProt Q5PPK9).
T1 sequence: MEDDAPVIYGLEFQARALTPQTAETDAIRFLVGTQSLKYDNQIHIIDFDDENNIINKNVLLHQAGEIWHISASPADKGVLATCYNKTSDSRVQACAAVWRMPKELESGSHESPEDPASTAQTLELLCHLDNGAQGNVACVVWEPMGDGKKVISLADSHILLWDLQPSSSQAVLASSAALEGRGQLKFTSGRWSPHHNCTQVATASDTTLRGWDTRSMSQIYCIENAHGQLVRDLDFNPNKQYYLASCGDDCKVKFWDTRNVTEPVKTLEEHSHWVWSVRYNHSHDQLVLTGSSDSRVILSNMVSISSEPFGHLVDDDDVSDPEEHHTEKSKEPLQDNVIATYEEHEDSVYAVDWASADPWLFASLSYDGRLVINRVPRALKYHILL
The assay can be described thus: affinity purification with mass spectrometry; EIPR1::GFP or GFP transfected into 832/13 cells; lysis in 50 mM Tris pH 7.5, 150 mM NaCl, 1% NP-40; captured on anti-GFP nanobody magnetic beads 2 h at 4°C; washes with 300 mM NaCl, 1% NP-40; hits of GFP control (or CCCP1::GFP and RUNDC1::GFP) pulldowns subtracted; two independent pulldowns.
Regarding B1, the binding result is on record as “binds”.

As for B2, the binding result is listed as “binds”.

B3: the binding result was “binds”.

The values are drawn from publication PMC4871572.
